Measurements reported in paper PMC8383118.

Target: T1, Prx (paratox) (Streptococcus pyogenes MGAS315 (prophage)) (UniProt A0A0H2UWN8)
T1 sequence (looked up, limits assumed): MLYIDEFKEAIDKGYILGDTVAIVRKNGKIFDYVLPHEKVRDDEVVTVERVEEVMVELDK
Experiment: EMSA
Conditions: Prx alone; 8 uM XIP, 100 ng FAM-DNA, 15-30 min incubation; 5% native PAGE, 100 V, 50 min, 4 C; recombinant protein; protein details: His-tag; label: 5' FAM (reverse primer); probe letters rebuilt from the primers and the genome

Does “CCTGTTATTCTCCTTTCTTTTTGATATCATTCATTATAAATGATCCTTCAAAAAAAGAACAGGACATTTATGTCCCGTTCTGAGAATCTTTTTGCCATTCTTTCTCCAAATTTTCTCTTAAATTAATGTTTTCTGTTAACTGGGCAAATAAGATAGCAGCATCATAGCTCTTTTTAGCTTCCGCATAATCTTTTTCAACAAATAAATGATGCTTCCATGTCAGAAGATTAACAATAGGCTTTTTTTGAAAATCATGAGTTCTATCCATGATTTTATTGCTGACAGCAATAAGCTGCTTAACAAAATCATATTTTTTCAATTCTAAGAGGAGTCCAAAATTATTCAATAAAACATTATTTAAAACGAAAAGATCTTCCAATGGAAGGCAGTCTACCTGCTT (double strand) [comS promoter probe (PcomS)]” bind?
Result: no binding

For at least one entry, the source does not settle the construct or the ends of the probe. No signal at the amounts used counts as a negative. At least one verdict was read from the data and is not stated in words by the source. Protein sequences can lack the tags named with them.
